# Assay results taken from the supplement of paper PMC8728848.
# This is one part of the list.
# B1: SfaEH (Escherichia coli), Q1RDG5 (protein)
# chain: LLCRNNQTGQVFNSGDTSFRVNVSPVVQYDKSISVLDLSQLVSCQNEDSTGQNYDYLKILKGSGFSPALDTKTYGRLDFTSRPTGYARQLPLQFDLQVTEAFYQYGVWKPFPAKLYLYPAPGVFGKVINNGDLLATLYVNKFSTKGQEAGERNFTWRFYATNDVYIQTGTCRVSSNNVKVDLPSYPGGPVTVPLTVRCDQTQSVSYTLSGPVTGSGNTVFANTAASGSGGVGIQLSDNVGPVPAGQPRSLGQVGSSPVSLGLKASYALTGQASPTPGAVQSVINVTFSYN
# Columns and labels:
# Assay in all cases: glycan array binding signal (z-score within array); higher = stronger binding
# Details in all cases: glycan notation: IUPAC condensed, linker removed
# [1] = target: Neu5Ac(a2-3)Gal(b1-4)GlcNAc(b1-6)GalNAc
# In short: (§1)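 Arrays were curated from the Consortium for Functional Glycomics database, 3228 in total, and kept only where the protein sequence was available. Binding is expressed as a within-array Z-score. This score was averaged across arrays of the same protein sequence at different concentrations or buffers and across linkers, and negative values can be read as non-binding.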
# [2] = target: Neu5Ac(a2-3)Gal(b1-4)GlcNAc(b1-6)[Gal(b1-3)]GalNAc
# In short: as §1
# [3] = target: Neu5Ac(a2-3)Gal(b1-4)GlcNAc(b1-6)[Neu5Ac(a2-3)Gal(b1-3)]GalNAc
# In short: as §1
# [4] = target: Neu5Ac(a2-3)Gal(b1-4)GlcNAc6S
# In short: as §1
# [5] = target: Neu5Ac(a2-3)Gal(b1-4)[Fuc(a1-3)]GlcNAc
# In short: as §1
# [6] = target: Neu5Ac(a2-3)Gal(b1-4)[Fuc(a1-3)]GlcNAc(b1-2)Man
# In short: as §1
# [7] = target: Neu5Ac(a2-3)Gal(b1-4)[Fuc(a1-3)]GlcNAc(b1-3)Gal
# In short: as §1
# [8] = target: Neu5Ac(a2-3)Gal(b1-4)[Fuc(a1-3)]GlcNAc(b1-3)Gal(b1-4)GlcNAc
# In short: as §1
# [9] = target: Neu5Ac(a2-3)Gal(b1-4)[Fuc(a1-3)]GlcNAc(b1-3)Gal(b1-4)[Fuc(a1-3)]GlcNAc(b1-3)Gal(b1-4)[Fuc(a1-3)]GlcNAc
# In short: as §1
# [10] = target: Neu5Ac(a2-3)Gal(b1-4)[Fuc(a1-3)]GlcNAc(b1-3)GalNAc
# In short: as §1
# [11] = target: Neu5Ac(a2-3)Gal(b1-4)[Fuc(a1-3)]GlcNAc(b1-6)[Gal(b1-3)]GalNAc
# In short: as §1
# [12] = target: Neu5Ac(a2-3)Gal(b1-4)[Fuc(a1-3)]GlcNAc(b1-6)[Neu5Ac(a2-3)Gal(b1-3)]GalNAc
# In short: as §1
# [13] = target: Neu5Ac(a2-3)Gal(b1-4)[Fuc(a1-3)]GlcNAc6S
# In short: as §1
# [14] = target: Neu5Ac(a2-3)Gal6S(b1-4)GlcNAc
# In short: as §1
# [15] = target: Neu5Ac(a2-3)Gal6S(b1-4)[Fuc(a1-3)]GlcNAc
# In short: as §1
# Neu5Ac(a2-3)GalNAc = target: Neu5Ac(a2-3)GalNAc
# In short: as §1
# [16] = target: Neu5Ac(a2-3)GalNAc(b1-4)GlcNAc
# In short: as §1
# [17] = target: Neu5Ac(a2-3)[GalNAc(b1-4)]Gal(b1-4)Glc
# In short: as §1
# [18] = target: Neu5Ac(a2-3)[GalNAc(b1-4)]Gal(b1-4)GlcNAc
# In short: as §1
# [19] = target: Neu5Ac(a2-3)[GalNAc(b1-4)]Gal(b1-4)GlcNAc(b1-3)GalNAc
# In short: as §1
# [20] = target: Neu5Ac(a2-3)[Neu5Ac(a2-6)]GalNAc
# In short: as §1
# Neu5Ac(a2-6)Gal = target: Neu5Ac(a2-6)Gal
# In short: as §1
# [21] = target: Neu5Ac(a2-6)Gal(b1-3)GlcNAc(b1-3)[Gal(b1-4)GlcNAc(b1-6)]Gal(b1-4)Glc
# In short: as §1
# Neu5Ac(a2-6)Gal(b1-4)Glc = target: Neu5Ac(a2-6)Gal(b1-4)Glc
# In short: as §1
# [22] = target: Neu5Ac(a2-6)Gal(b1-4)GlcNAc
# In short: as §1
# [23] = target: Neu5Ac(a2-6)Gal(b1-4)GlcNAc(b1-2)Man
# In short: as §1
# [24] = target: Neu5Ac(a2-6)Gal(b1-4)GlcNAc(b1-2)Man(a1-3)Man(b1-4)GlcNAc(b1-4)GlcNAc
# In short: as §1
# [25] = target: Neu5Ac(a2-6)Gal(b1-4)GlcNAc(b1-2)Man(a1-3)[Gal(b1-4)GlcNAc(b1-2)Man(a1-6)]Man(b1-4)GlcNAc(b1-4)GlcNAc
# In short: as §1
# [26] = target: Neu5Ac(a2-6)Gal(b1-4)GlcNAc(b1-2)Man(a1-3)[GlcNAc(b1-2)Man(a1-6)]Man(b1-4)GlcNAc(b1-4)GlcNAc
# In short: as §1
# [27] = target: Neu5Ac(a2-6)Gal(b1-4)GlcNAc(b1-2)Man(a1-3)[GlcNAc(b1-4)][Neu5Ac(a2-6)Gal(b1-4)GlcNAc(b1-2)Man(a1-6)]Man(b1-4)GlcNAc(b1-4)GlcNAc
# In short: as §1
binder,measurement,setting,value
B1,glycan array binding signal (z-score),[1],0.768
same,glycan array binding signal (z-score),[2],2.32
same,glycan array binding signal (z-score),[3],-0.888
same,glycan array binding signal (z-score),[4],-0.835
same,glycan array binding signal (z-score),[5],-0.815
same,glycan array binding signal (z-score),[6],0.681
same,glycan array binding signal (z-score),[7],-0.014
same,glycan array binding signal (z-score),[8],0.454
same,glycan array binding signal (z-score),[9],0.9
same,glycan array binding signal (z-score),[10],0.454
same,glycan array binding signal (z-score),[11],-0.654
same,glycan array binding signal (z-score),[12],-0.281
same,glycan array binding signal (z-score),[13],0.695
same,glycan array binding signal (z-score),[14],-0.797
same,glycan array binding signal (z-score),[15],-0.558
same,glycan array binding signal (z-score),Neu5Ac(a2-3)GalNAc,-0.756
same,glycan array binding signal (z-score),[16],0.222
same,glycan array binding signal (z-score),[17],-0.002
same,glycan array binding signal (z-score),[18],0.118
same,glycan array binding signal (z-score),[19],-0.972
same,glycan array binding signal (z-score),[20],3.69
same,glycan array binding signal (z-score),Neu5Ac(a2-6)Gal,0.728
same,glycan array binding signal (z-score),[21],0.302
same,glycan array binding signal (z-score),Neu5Ac(a2-6)Gal(b1-4)Glc,0.341
same,glycan array binding signal (z-score),[22],-0.226
same,glycan array binding signal (z-score),[23],-0.715
same,glycan array binding signal (z-score),[24],-0.437
same,glycan array binding signal (z-score),[25],-0.141
same,glycan array binding signal (z-score),[26],-0.438
same,glycan array binding signal (z-score),[27],-0.618

# Nothing new here: an excerpt of the list.
binder,measurement,setting,value
B1,glycan array binding signal (z-score),[13],0.695
same,glycan array binding signal (z-score),[14],-0.797
